From PubChem BioAssay record AID504749 (NCATS, 2011).

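A panel of P. falciparum strains inside erythrocytes is exposed to compounds for three days, then a DNA-binding dye reports the amount of parasite DNA. Each compound was titrated across a series from about 0.000037 to 29 µM. The number is the fitted AC50, the concentration giving a half-maximal change in signal; a lower value means higher potency, whether the curve shows a decrease or an increase. Calls follow the curve class and fit quality: every row here is inconclusive, covering signal-raising curves and weak, poorly fitted, partial or highest-dose-only inhibition curves.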

Values are in µM. All entries here are filed as inconclusive. Only part of the assay is shown, chiefly results filed as inconclusive. Potencies fitted to partial, single-point or poorly fitting curves are rough. Some entries filed as inconclusive have a full curve.

- COC(=O)C1=C(C)NC(C)=C(C(=O)OC(C)C)[C@H]1c1cccc2nonc12 [CP269] : potency 8.087 µM (inhibitor, single point)
- COC(=O)C1=C(C)NC(C)=C(C(=O)OC(C)C)[C@H]1c1cccc2nonc12 [ATS95] : potency 2.512 µM (inhibitor, partial curve)
- COC(=O)C1=C(C)NC(C)=C(C(=O)OC(C)C)[C@H]1c1cccc2nonc12 [CP194] : potency 5.726 µM (inhibitor, partial curve)
- COC(=O)C1=C(C)NC(C)=C(C(=O)OC(C)C)[C@H]1c1cccc2nonc12 [HB3] : potency 3.548 µM (inhibitor, partial curve)
- COC(=O)C1=C(C)NC(C)=C(C(=O)OC(C)C)[C@H]1c1cccc2nonc12 [TAB113] : potency 3.548 µM (inhibitor, single point)
- COC(=O)C1=C(C)NC(C)=C(C(=O)OC(C)C)[C@H]1c1cccc2nonc12 [SC27B] : potency 3.548 µM (inhibitor, partial curve, poor fit)
- COC(=O)C1=C(C)NC(C)=C(C(=O)OC(C)C)[C@H]1c1cccc2nonc12 [CP260] : potency 3.548 µM (inhibitor, partial curve)
- COC(=O)C1=C(C)NC(C)=C(C(=O)OC(C)C)[C@H]1c1cccc2nonc12 [AA1029] : potency 4.467 µM (inhibitor, single point)
- COC(=O)C1=C(C)NC(C)=C(C(=O)OC(C)C)[C@H]1c1cccc2nonc12 [CP305] : potency 5.726 µM (inhibitor, partial curve)
- COC(=O)C1=C(C)NC(C)=C(C(=O)OC(C)C)[C@H]1c1cccc2nonc12 [CP237] : potency 3.162 µM (inhibitor, partial curve)
- COC(=O)C1=C(C)NC(C)=C(C(=O)OC(C)C)[C@H]1c1cccc2nonc12 [DIV17] : potency 8.087 µM (inhibitor, single point)
- COC(=O)C1=C(C)NC(C)=C(C(=O)OC(C)C)[C@H]1c1cccc2nonc12 [GB4] : potency 4.053 µM (inhibitor, partial curve)
- COC(=O)C1=C(C)NC(C)=C(C(=O)OC(C)C)[C@H]1c1cccc2nonc12 [TAB165] : potency 3.162 µM (inhibitor, partial curve)
- COC(=O)C1=C(C)NC(C)=C(C(=O)OC(C)C)[C@H]1c1cccc2nonc12 [CP191] : potency 4.467 µM (inhibitor, single point)
- COC(=O)C1=C(C)NC(C)=C(C(=O)OC(C)C)[C@H]1c1cccc2nonc12 [CP297] : potency 6.424 µM (inhibitor, single point)
- COC(=O)C1=C(C)NC(C)=C(C(=O)OC(C)C)[C@H]1c1cccc2nonc12 [CP203] : potency 5.726 µM (inhibitor, partial curve)
- COC(=O)C1=C(C)NC(C)=C(C(=O)OC(C)C)[C@H]1c1cccc2nonc12 [CP211] : potency 6.424 µM (inhibitor, single point)
- COC(=O)C1=C(C)NC(C)=C(C(=O)OC(C)C)[C@H]1c1cccc2nonc12 [PC26] : potency 4.053 µM (inhibitor, partial curve)
- COC(=O)C1=C(C)NC(C)=C(C(=O)OC(C)C)[C@H]1c1cccc2nonc12 [AS120] : potency 3.548 µM (inhibitor, partial curve)
- COC(=O)C1=C(C)NC(C)=C(C(=O)OC(C)C)[C@H]1c1cccc2nonc12 [CP215] : potency 4.053 µM (inhibitor, partial curve)
- COC(=O)C1=C(C)NC(C)=C(C(=O)OC(C)C)[C@H]1c1cccc2nonc12 [CP335] : potency 5.103 µM (inhibitor, single point)
- COC(=O)C1=C(C)NC(C)=C(C(=O)OC(C)C)[C@H]1c1cccc2nonc12 [DIV14] : potency 7.208 µM (inhibitor, single point)
- COC(=O)C1=C(C)NC(C)=C(C(=O)OC(C)C)[C@H]1c1cccc2nonc12 [P94_40] : potency 2.818 µM (inhibitor, partial curve, poor fit)
- Cc1oc(=O)oc1CN1CCN(c2cc3c(cc2F)c(=O)c(C(=O)O)c2n3C(C)S2)CC1 (configuration not stated) [CP203] : potency 2.686 µM (inhibitor, full curve, poor fit)
- Cc1oc(=O)oc1CN1CCN(c2cc3c(cc2F)c(=O)c(C(=O)O)c2n3C(C)S2)CC1 (configuration not stated) [CP329] : potency 2.393 µM (inhibitor, partial curve)
- Cc1oc(=O)oc1CN1CCN(c2cc3c(cc2F)c(=O)c(C(=O)O)c2n3C(C)S2)CC1 (configuration not stated) [PC15] : potency 12.59 µM (inhibitor, single point)
- Cc1oc(=O)oc1CN1CCN(c2cc3c(cc2F)c(=O)c(C(=O)O)c2n3C(C)S2)CC1 (configuration not stated) [CP268] : potency 4.776 µM (inhibitor, partial curve)
- Cc1oc(=O)oc1CN1CCN(c2cc3c(cc2F)c(=O)c(C(=O)O)c2n3C(C)S2)CC1 (configuration not stated) [CP215] : potency 1.346 µM (inhibitor, full curve)

The last 4 entries again:

| Compound | condition | potency (µM) | curve |
|---|---|---|---|
| `Cc1oc(=O)oc1CN1CCN(c2cc3c(cc2F)c(=O)c(C(=O)O)c2n3C(C)S2)CC1` (configuration not stated) | CP329 | 2.393 | inhibitor, partial curve |
| `Cc1oc(=O)oc1CN1CCN(c2cc3c(cc2F)c(=O)c(C(=O)O)c2n3C(C)S2)CC1` (configuration not stated) | PC15 | 12.59 | inhibitor, single point |
| `Cc1oc(=O)oc1CN1CCN(c2cc3c(cc2F)c(=O)c(C(=O)O)c2n3C(C)S2)CC1` (configuration not stated) | CP268 | 4.776 | inhibitor, partial curve |
| `Cc1oc(=O)oc1CN1CCN(c2cc3c(cc2F)c(=O)c(C(=O)O)c2n3C(C)S2)CC1` (configuration not stated) | CP215 | 1.346 | inhibitor, full curve |